No constants are given. Whether binding was seen depends on the method and setting. In cells and extracts the contact can be indirect. Here binding means that the protein was enriched with, or labelled near, the bait; the list need not be complete. Where a sequence is shown, tags or fusion partners need not be part of it.
Molecular target: T1, TAP-tag-GFP-SH3BP2 (mouse) (UniProt Q06649)
T1 sequence: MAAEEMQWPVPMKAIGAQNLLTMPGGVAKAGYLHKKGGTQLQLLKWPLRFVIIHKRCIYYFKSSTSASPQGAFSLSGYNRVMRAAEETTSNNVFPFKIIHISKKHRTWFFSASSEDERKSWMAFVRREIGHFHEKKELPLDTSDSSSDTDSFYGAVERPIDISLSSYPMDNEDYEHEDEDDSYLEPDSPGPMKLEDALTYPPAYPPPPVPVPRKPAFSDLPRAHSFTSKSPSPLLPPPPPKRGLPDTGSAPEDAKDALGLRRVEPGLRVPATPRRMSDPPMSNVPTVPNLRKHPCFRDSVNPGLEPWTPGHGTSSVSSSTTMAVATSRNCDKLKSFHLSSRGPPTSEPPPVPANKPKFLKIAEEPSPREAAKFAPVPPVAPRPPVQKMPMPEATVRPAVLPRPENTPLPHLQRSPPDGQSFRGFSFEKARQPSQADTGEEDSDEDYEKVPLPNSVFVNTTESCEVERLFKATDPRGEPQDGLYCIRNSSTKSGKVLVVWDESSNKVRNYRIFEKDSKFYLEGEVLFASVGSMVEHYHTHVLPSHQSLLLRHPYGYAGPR
Test: affinity purification with mass spectrometry

Amino acid sequences for entries named in this document (tags omitted).
UniProt E9Q6R7: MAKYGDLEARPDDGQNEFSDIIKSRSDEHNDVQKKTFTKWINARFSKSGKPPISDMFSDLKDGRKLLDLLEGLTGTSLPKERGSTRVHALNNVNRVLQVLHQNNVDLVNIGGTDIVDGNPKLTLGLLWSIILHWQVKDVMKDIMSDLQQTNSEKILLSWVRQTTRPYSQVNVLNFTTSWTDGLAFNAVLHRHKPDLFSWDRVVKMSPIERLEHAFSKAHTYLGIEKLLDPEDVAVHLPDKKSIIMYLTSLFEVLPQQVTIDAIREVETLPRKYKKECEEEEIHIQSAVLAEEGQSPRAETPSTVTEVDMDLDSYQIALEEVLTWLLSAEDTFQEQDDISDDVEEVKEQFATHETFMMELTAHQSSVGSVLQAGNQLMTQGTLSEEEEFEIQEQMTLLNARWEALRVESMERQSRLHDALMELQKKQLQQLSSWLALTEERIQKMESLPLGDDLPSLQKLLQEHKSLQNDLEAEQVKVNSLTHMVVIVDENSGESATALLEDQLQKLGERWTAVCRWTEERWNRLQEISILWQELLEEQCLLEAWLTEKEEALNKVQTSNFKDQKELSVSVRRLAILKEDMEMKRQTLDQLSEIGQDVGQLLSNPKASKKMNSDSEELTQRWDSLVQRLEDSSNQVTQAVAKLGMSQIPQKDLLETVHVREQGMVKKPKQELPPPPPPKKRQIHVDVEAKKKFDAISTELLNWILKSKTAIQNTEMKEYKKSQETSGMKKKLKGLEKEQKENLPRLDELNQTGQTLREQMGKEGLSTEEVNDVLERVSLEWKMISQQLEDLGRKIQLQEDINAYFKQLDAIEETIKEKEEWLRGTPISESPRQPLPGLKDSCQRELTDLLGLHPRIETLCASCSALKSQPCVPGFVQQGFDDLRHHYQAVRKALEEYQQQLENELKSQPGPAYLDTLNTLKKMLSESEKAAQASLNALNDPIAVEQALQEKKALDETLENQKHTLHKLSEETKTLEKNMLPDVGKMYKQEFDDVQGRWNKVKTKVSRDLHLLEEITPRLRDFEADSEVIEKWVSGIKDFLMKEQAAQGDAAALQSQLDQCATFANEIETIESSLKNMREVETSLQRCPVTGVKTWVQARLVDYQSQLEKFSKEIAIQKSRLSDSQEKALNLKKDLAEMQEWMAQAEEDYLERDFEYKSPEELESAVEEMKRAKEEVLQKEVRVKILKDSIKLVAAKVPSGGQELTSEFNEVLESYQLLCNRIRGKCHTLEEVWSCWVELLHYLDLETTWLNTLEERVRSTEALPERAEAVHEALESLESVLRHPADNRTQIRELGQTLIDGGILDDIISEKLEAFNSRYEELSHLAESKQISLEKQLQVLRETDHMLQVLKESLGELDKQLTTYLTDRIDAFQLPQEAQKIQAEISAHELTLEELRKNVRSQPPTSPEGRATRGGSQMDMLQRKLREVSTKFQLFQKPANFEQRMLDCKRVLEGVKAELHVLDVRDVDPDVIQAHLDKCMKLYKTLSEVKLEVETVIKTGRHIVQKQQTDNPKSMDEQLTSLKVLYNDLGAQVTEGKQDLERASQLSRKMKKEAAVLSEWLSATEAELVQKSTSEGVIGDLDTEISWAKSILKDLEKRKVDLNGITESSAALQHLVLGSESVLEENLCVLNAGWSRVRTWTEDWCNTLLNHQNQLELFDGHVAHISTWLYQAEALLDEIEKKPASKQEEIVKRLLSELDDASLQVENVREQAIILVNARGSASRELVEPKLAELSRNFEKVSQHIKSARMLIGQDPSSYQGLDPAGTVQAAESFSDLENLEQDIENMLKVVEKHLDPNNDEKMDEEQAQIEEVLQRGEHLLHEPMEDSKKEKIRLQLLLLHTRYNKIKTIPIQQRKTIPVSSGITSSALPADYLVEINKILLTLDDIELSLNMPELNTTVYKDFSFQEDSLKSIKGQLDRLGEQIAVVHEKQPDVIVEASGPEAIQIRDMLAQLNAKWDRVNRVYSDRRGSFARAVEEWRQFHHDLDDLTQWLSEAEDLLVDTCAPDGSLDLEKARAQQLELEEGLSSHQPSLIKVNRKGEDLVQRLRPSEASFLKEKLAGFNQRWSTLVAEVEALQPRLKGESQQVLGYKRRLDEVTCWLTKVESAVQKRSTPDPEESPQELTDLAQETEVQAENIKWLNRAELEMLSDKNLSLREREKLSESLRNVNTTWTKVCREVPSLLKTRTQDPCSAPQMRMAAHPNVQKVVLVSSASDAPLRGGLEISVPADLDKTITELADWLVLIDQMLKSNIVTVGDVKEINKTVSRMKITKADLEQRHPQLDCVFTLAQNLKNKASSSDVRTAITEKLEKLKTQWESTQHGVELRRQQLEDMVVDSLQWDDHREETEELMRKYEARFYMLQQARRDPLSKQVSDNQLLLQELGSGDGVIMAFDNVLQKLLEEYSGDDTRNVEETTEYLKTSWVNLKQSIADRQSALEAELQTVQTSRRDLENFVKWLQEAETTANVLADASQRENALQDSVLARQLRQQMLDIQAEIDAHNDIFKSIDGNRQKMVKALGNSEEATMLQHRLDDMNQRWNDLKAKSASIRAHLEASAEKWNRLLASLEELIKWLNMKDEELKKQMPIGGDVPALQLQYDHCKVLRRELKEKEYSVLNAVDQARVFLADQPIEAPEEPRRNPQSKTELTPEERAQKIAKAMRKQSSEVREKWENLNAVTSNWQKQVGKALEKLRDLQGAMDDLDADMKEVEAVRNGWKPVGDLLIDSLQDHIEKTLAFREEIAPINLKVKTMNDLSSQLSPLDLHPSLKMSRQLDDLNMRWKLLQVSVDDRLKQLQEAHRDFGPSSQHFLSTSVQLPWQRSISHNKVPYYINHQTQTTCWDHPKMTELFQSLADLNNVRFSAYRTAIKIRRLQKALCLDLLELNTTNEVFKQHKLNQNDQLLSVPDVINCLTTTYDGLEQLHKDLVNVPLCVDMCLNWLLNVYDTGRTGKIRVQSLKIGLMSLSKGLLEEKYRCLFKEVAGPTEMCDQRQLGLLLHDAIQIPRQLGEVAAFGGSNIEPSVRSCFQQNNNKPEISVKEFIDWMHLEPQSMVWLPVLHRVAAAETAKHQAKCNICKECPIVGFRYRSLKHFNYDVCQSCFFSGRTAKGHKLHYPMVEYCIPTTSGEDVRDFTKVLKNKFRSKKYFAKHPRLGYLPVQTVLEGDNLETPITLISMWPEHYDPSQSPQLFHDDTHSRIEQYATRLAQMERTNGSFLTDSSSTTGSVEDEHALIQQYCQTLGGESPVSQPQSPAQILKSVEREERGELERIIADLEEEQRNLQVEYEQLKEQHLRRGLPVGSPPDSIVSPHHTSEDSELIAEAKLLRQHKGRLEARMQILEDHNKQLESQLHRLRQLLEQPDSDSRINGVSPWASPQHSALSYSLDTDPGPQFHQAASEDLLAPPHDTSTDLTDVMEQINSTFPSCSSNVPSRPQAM

Row | binding | Substance
1 | binds | dystrophin (from UniProt P11531 1-3678)
2 | binds | utrophin (from UniProt E9Q6R7 1-3430)
3 | binds | α syntrophin (mouse (endogenous in C2C12))
